In this assay the target is T1, CLN7 (human (endogenous in SH-SY5Y)) (UniProt Q8NHS3).
T1 sequence: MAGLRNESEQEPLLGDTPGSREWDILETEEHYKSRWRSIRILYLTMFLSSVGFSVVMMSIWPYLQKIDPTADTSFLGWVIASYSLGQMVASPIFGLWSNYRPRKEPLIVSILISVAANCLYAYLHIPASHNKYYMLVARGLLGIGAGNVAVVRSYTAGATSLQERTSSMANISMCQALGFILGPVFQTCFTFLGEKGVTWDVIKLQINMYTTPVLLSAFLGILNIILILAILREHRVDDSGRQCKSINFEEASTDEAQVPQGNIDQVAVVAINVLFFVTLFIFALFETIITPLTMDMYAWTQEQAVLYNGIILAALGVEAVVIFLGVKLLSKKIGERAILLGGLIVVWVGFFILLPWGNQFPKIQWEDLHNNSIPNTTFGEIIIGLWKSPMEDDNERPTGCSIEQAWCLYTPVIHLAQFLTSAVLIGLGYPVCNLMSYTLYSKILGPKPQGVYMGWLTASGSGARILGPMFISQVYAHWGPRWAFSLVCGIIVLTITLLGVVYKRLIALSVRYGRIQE
The assay is described as follows: affinity purification with mass spectrometry; endogenous CLN7 immunoprecipitated from 2.5 mg SH-SY5Y lysate with a polyclonal anti-CLN7 antibody raised against L9 (351-421aa, Proteintech) on G-sepharose beads; IgG as non-specific binding control; 4 independent replicates; cells under steady state culture conditions.

Results are given in words; binding and its absence hold for the method and conditions named. Binding seen in cells or lysates may run through a third protein. Here binding means that the protein was enriched with, or labelled near, the bait; the list need not be complete.

B1: GNL3 (protein, UniProt Q9BVP2 1-549)
chain: MKRPKLKKASKRMTCHKRYKIQKKVREHHRKLRKEAKKRGHKKPRKDPGVPNSAPFKEALLREAELRKQRLEELKQQQKLDRQKELEKKRKLETNPDIKPSNVEPMEKEFGLCKTENKAKSGKQNSKKLYCQELKKVIEASDVVLEVLDARDPLGCRCPQVEEAIVQSGQKKLVLILNKSDLVPKENLESWLNYLKKELPTVVFRASTKPKDKGKITKRVKAKKNAAPFRSEVCFGKEGLWKLLGGFQETCSKAIRVGVIGFPNVGKSSIINSLKQEQMCNVGVSMGLTRSMQVVPLDKQITIIDSPSFIVSPLNSSSALALRSPASIEVVKPMEAASAILSQADARQVVLKYTVPGYRNSLEFFTVLAQRRGMHQKGGIPNVEGAAKLLWSEWTGASLAYYCHPPTSWTPPPYFNESIVVDMKSGFNLEELEKNNAQSIRAIKGPHLANSILFQSSGLTNGIIEEKDIHEELPKRKERKQEEREDDKDSDQETVDEEVDENSSGMFAAEETGEALSEETTAGEQSTRSFILDKIIEEDDAYDFSTDYV
In the case of B1, the binding entry is “binds”.

B2: GTPBP1 (protein, UniProt O00178 1-669)
chain: MATERSRSAMDSPVPASMFAPEPSSPGAARAAAAAARLHGGFDSDCSEDGEALNGEPELDLTSKLVLVSPTSEQYDSLLRQMWERMDEGCGETIYVIGQGSDGTEYGLSEADMEASYATVKSMAEQIEADVILLRERQEAGGRVRDYLVRKRVGDNDFLEVRVAVVGNVDAGKSTLLGVLTHGELDNGRGFARQKLFRHKHEIESGRTSSVGNDILGFDSEGNVVNKPDSHGGSLEWTKICEKSTKVITFIDLAGHEKYLKTTVFGMTGHLPDFCMLMVGSNAGIVGMTKEHLGLALALNVPVFVVVTKIDMCPANILQETLKLLQRLLKSPGCRKIPVLVQSKDDVIVTASNFSSERMCPIFQISNVTGENLDLLKMFLNLLSPRTSYREEEPAEFQIDDTYSVPGVGTVVSGTTLRGLIKLNDTLLLGPDPLGNFLSIAVKSIHRKRMPVKEVRGGQTASFALKKIKRSSIRKGMVMVSPRLNPQASWEFEAEILVLHHPTTISPRYQAMVHCGSIRQTATILSMDKDCLRTGDKATVHFRFIKTPEYLHIDQRLVFREGRTKAVGTITKLLQTTNNSPMNSKPQQIKMQSTKKGPLTKRDEGGPSGGPAVGAPPPGDEASSVGAGQPAASSNLQPQPKPSSGGRRRGGQRHKVKSQGACVTPASGC
Consider B2, for which the binding result was “binds”.

B3: GIT2 (protein, UniProt Q14161 1-759)
chain: MSKRLRSSEVCADCSGPDPSWASVNRGTFLCDECCSVHRSLGRHISQVRHLKHTPWPPTLLQMVETLYNNGANSIWEHSLLDPASIMSGRRKANPQDKVHPNKAEFIRAKYQMLAFVHRLPCRDDDSVTAKDLSKQLHSSVRTGNLETCLRLLSLGAQANFFHPEKGNTPLHVASKAGQILQAELLAVYGADPGTQDSSGKTPVDYARQGGHHELAERLVEIQYELTDRLAFYLCGRKPDHKNGQHFIIPQMADSSLDLSELAKAAKKKLQSLSNHLFEELAMDVYDEVDRRETDAVWLATQNHSALVTETTVVPFLPVNPEYSSTRNQGRQKLARFNAHEFATLVIDILSDAKRRQQGSSLSGSKDNVELILKTINNQHSVESQDNDQPDYDSVASDEDTDLETTASKTNRQKSLDSDLSDGPVTVQEFMEVKNALVASEAKIQQLMKVNNNLSDELRIMQKKLQTLQSENSNLRKQATTNVYQVQTGSEYTDTSNHSSLKRRPSARGSRPMSMYETGSGQKPYLPMGEASRPEESRMRLQPFPAHIGRSALVTSSSSLPSFPSTLSWSRDESARRASRLEKQNSTPESDYDNTPNDMEPDGMGSSRKGRQRSMVWPGDGLVPDTAEPHVAPSPTLPSTEDVIRKTEQITKNIQELLRAAQENKHDSYIPCSERIHVAVTEMAALFPKKPKSDMVRTSLRLLTSSAYRLQSECKKTLPGDPGSPTDVQLVTQQVIQCAYDIAKAAKQLVTITTKENNN
As to B3, the binding result is reported as “binds”.

B4: HAUS6 (protein, UniProt Q7Z4H7 1-955)
chain: MSSASVTAFEKEHLWMYLQALGFEPGPATIACGKIVSHTHLGVNMFDKLNRDAFHIISYFLFQVLDQSLTKEVFKFCWPPFDQKSDTEFRKHCCEWIKRISGECGSSFPQVVGSLFLSPGGPKFIHLMYHFARFVAMKYIKSNSKNSSHHFVETFNIKPQDLHKCIARCHFARSRFLQILQRQDCVTQKYQENAQLSVKQVRNLRSECIGLENQIKKMEPYDDHSNMEEKIQKVRSLWASVNETLMFLEKEREVVSSVLSLVNQYALDGTNVAINIPRLLLDKIEKQMFQLHIGNVYEAGKLNLLTVIQLLNEVLKVMKYERCQADQARLTVDLHYLEKETKFQKERLSDLKHMRYRIKDDLTTIRHSVVEKQGEWHKKWKEFLGLSPFSLIKGWTPSVDLLPPMSPLSFDPASEEVYAKSILCQYPASLPDAHKQHNQENGCRGDSDTLGALHDLANSPASFLSQSVSSSDRNSVTVLEKDTKMGTPKEKNEAISKKIPEFEVENSPLSDVAKNTESSAFGGSLPAKKSDPFQKEQDHLVEEVARAVLSDSPQLSEGKEIKLEELIDSLGSNPFLTRNQIPRTPENLITEIRSSWRKAIEMEENRTKEPIQMDAEHREVLPESLPVLHNQREFSMADFLLETTVSDFGQSHLTEEKVISDCECVPQKHVLTSHIDEPPTQNQSDLLNKKVICKQDLECLAFTKLSETSRMETFSPAVGNRIDVMGGSEEEFMKILDHLEVSCNKPSTNKTMLWNSFQISSGISSKSFKDNDFGILHETLPEEVGHLSFNSSSSSEANFKLEPNSPMHGGTLLEDVVGGRQTTPESDFNLQALRSRYEALKKSLSKKREESYLSNSQTPERHKPELSPTPQNVQTDDTLNFLDTCDLHTEHIKPSLRTSIGERKRSLSPLIKFSPVEQRLRTTIACSLGELPNLKEEDILNKSLDAKEPPSDLTR
Consider B4, for which the binding result is on record as “binds”.

B5: HPS5 (protein, UniProt Q9UPZ3 1-1129)
chain: MAFVPVIPESYSHVLAEFESLDPLLSALRLDSSRLKCTSIAVSRKWLALGSSGGGLHLIQKEGWKHRLFLSHREGAISQVACCLHDDDYVAVATSQGLVVVWELNQERRGKPEQMYVSSEHKGRRVTALCWDTAILRVFVGDHAGKVSAIKLNTSKQAKAAAAFVMFPVQTITTVDSCVVQLDYLDGRLLISSLTRSFLCDTEREKFWKIGNKERDGEYGACFFPGRCSGGQQPLIYCARPGSRMWEVNFDGEVISTHQFKKLLSLPPLPVITLRSEPQYDHTAGSSQSLSFPKLLHLSEHCVLTWTERGIYIFIPQNVQVLLWSEVKDIQDVAVCRNELFCLHLNGKVSHLSLISVERCVERLLRRGLWNLAARTCCLFQNSVIASRARKTLTADKLEHLKSQLDHGTYNDLISQLEELILKFEPLDSACSSRRSSISSHESFSILDSGIYRIISSRRGSQSDEDSCSLHSQTLSEDERFKEFTSQQEEDLPDQCCGSHGNEDNVSHAPVMFETDKNETFLPFGIPLPFRSPSPLVSLQAVKESVSSFVRKTTEKIGTLHTSPDLKVRPELRGDEQSCEEDVSSDTCPKEEDTEEEKEVTSPPPEEDRFQELKVATAEAMTKLQDPLVLFESESLRMVLQEWLSHLEKTFAMKDFSGVSDTDNSSMKLNQDVLLVNESKKGILDEDNEKEKRDSLGNEESVDKTACECVRSPRESLDDLFQICSPCAIASGLRNDLAELTTLCLELNVLNSKIKSTSGHVDHTLQQYSPEILACQFLKKYFFLLNLKRAKESIKLSYSNSPSVWDTFIEGLKEMASSNPVYMEMEKGDLPTRLKLLDDEVPFDSPLLVVYATRLYEKFGESALRSLIKFFPSILPSDIIQLCHHHPAEFLAYLDSLVKSRPEDQRSSFLESLLQPESLRLDWLLLAVSLDAPPSTSTMDDEGYPRPHSHLLSWGYSQLILHLIKLPADFITKEKMTDICRSCGFWPGYLILCLELERRREAFTNIVYLNDMSLMEGDNGWIPETVEEWKLLLHLIQSKSTRPAPQESLNGSLSDGPSPINVENVALLLAKAMGPDRAWSLLQECGLALELSEKFTRTCDILRIAEKRQRALIQSMLEKCDRFLWSQQA
As to B5, the binding entry was “binds”.

B6: HERC4 (protein, UniProt Q5GLZ8 1-1057)
chain: MLCWGNASFGQLGLGGIDEEIVLEPRKSDFFINKRVRDVGCGLRHTVFVLDDGTVYTCGCNDLGQLGHEKSRKKPEQVVALDAQNIVAVSCGEAHTLALNDKGQVYAWGLDSDGQLGLVGSEECIRVPRNIKSLSDIQIVQVACGYYHSLALSKASEVFCWGQNKYGQLGLGTDCKKQTSPQLLKSLLGIPFMQVAAGGAHSFVLTLSGAIFGWGRNKFGQLGLNDENDRYVPNLLKSLRSQKIVYICCGEDHTAALTKEGGVFTFGAGGYGQLGHNSTSHEINPRKVFELMGSIVTEIACGRQHTSAFVPSSGRIYSFGLGGNGQLGTGSTSNRKSPFTVKGNWYPYNGQCLPDIDSEEYFCVKRIFSGGDQSFSHYSSPQNCGPPDDFRCPNPTKQIWTVNEALIQKWLSYPSGRFPVEIANEIDGTFSSSGCLNGSFLAVSNDDHYRTGTRFSGVDMNAARLLFHKLIQPDHPQISQQVAASLEKNLIPKLTSSLPDVEALRFYLTLPECPLMSDSNNFTTIAIPFGTALVNLEKAPLKVLENWWSVLEPPLFLKIVELFKEVVVHLLKLYKIGIPPSERRIFNSFLHTALKVLEILHRVNEKMGQIIQYDKFYIHEVQELIDIRNDYINWVQQQAYGMDVNHGLTELADIPVTICTYPFVFDAQAKTTLLQTDAVLQMQMAIDQAHRQNVSSLFLPVIESVNPCLILVVRRENIVGDAMEVLRKTKNIDYKKPLKVIFVGEDAVDAGGVRKEFFLLIMRELLDPKYGMFRYYEDSRLIWFSDKTFEDSDLFHLIGVICGLAIYNCTIVDLHFPLALYKKLLKKKPSLDDLKELMPDVGRSMQQLLDYPEDDIEETFCLNFTITVENFGATEVKELVLNGADTAVNKQNRQEFVDAYVDYIFNKSVASLFDAFHAGFHKVCGGKVLLLFQPNELQAMVIGNTNYDWKELEKNTEYKGEYWAEHPTIKIFWEVFHELPLEKKKQFLLFLTGSDRIPILGMKSLKLVIQSTGGGEEYLPVSHTCFNLLDLPKYTEKETLRSKLIQAIDHNEGFSLI
Consider B6, for which the binding entry is “binds”.

Source of the values: PMC12579238.
